Measured values from the supplement of paper PMC11732987, “Enantioselective OTUD7B fragment discovery through chemoproteomics screening and high-throughput optimisation” (Communications Chemistry, 2025).
This is one part of the list. The data scatter; read single values as rough.

Protein sequences, listed by entry. Tags and fused reporters are not part of them. Lines headed by an entry give the natural chain unless they say otherwise; changes in a name come on top. Residues count along the entry.
UniProt Q9NVR0: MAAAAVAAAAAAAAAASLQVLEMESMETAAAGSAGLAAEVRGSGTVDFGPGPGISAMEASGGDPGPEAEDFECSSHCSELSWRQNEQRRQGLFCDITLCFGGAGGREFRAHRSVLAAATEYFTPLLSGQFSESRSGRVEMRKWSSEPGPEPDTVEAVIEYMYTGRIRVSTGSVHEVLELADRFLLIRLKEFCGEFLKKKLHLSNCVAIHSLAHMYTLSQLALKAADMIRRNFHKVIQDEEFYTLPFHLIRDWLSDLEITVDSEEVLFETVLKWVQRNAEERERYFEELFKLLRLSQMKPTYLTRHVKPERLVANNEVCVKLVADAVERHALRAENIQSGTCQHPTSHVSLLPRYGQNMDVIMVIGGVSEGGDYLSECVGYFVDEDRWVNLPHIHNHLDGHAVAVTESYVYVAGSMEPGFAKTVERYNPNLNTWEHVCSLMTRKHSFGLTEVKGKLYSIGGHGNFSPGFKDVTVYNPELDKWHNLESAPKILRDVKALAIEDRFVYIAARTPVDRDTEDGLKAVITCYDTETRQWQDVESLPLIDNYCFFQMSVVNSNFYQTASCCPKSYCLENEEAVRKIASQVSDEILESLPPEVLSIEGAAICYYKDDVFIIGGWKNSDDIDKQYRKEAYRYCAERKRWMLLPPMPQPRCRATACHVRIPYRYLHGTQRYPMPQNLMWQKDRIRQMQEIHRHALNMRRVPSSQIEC
UniProt Q8NEZ4, 3744-3769: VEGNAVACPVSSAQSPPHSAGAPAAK
UniProt O60662: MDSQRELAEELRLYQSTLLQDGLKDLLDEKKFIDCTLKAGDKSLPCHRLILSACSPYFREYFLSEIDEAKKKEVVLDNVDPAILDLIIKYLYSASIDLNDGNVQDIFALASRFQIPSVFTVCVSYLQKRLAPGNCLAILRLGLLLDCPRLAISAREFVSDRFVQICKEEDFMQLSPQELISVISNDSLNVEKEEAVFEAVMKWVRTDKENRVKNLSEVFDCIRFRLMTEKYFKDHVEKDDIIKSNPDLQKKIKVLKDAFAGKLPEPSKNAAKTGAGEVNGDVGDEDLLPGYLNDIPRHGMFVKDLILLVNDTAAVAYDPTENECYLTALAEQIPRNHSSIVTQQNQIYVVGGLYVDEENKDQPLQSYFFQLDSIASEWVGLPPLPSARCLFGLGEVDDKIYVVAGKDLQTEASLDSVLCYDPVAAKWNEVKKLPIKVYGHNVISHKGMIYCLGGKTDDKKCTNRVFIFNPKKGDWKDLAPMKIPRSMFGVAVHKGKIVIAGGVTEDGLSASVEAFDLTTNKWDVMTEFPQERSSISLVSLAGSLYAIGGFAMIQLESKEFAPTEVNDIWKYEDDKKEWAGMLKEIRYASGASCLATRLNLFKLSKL
UniProt O43766: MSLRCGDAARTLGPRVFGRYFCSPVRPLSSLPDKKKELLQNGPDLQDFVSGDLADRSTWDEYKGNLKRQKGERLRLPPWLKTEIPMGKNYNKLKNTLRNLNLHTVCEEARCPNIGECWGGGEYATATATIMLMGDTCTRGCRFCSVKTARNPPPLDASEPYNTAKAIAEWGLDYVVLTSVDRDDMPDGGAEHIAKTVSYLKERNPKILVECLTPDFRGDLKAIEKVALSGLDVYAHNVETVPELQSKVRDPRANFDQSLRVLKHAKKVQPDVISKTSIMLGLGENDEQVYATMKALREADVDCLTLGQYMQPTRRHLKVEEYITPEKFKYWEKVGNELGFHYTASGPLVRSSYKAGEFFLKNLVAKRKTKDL
UniProt Q15334: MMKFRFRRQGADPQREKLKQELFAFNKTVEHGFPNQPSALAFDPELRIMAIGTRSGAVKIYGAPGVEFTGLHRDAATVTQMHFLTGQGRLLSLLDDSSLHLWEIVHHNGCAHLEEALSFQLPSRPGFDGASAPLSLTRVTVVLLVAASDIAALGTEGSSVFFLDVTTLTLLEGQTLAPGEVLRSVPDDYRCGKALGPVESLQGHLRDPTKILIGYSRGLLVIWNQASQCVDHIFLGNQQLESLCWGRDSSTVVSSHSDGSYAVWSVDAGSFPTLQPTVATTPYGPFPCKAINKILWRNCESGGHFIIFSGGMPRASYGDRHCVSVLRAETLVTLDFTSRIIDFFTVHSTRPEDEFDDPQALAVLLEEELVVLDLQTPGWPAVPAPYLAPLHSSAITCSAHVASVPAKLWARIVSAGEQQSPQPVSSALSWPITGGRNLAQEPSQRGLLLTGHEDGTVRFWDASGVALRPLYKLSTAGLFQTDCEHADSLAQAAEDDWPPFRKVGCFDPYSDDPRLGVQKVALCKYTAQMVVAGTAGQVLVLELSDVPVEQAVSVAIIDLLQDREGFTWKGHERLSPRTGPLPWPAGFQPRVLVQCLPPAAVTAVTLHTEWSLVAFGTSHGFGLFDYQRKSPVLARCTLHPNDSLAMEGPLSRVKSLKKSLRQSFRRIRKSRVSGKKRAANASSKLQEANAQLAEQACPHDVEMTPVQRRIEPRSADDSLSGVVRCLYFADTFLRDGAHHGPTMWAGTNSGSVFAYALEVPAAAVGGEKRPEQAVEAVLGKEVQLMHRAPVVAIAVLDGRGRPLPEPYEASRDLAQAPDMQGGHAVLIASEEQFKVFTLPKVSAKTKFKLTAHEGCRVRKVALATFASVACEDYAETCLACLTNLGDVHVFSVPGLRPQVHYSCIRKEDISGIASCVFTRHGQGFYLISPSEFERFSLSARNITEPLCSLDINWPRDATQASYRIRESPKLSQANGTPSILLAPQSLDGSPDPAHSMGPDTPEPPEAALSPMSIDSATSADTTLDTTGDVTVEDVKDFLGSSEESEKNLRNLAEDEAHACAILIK
UniProt P01130: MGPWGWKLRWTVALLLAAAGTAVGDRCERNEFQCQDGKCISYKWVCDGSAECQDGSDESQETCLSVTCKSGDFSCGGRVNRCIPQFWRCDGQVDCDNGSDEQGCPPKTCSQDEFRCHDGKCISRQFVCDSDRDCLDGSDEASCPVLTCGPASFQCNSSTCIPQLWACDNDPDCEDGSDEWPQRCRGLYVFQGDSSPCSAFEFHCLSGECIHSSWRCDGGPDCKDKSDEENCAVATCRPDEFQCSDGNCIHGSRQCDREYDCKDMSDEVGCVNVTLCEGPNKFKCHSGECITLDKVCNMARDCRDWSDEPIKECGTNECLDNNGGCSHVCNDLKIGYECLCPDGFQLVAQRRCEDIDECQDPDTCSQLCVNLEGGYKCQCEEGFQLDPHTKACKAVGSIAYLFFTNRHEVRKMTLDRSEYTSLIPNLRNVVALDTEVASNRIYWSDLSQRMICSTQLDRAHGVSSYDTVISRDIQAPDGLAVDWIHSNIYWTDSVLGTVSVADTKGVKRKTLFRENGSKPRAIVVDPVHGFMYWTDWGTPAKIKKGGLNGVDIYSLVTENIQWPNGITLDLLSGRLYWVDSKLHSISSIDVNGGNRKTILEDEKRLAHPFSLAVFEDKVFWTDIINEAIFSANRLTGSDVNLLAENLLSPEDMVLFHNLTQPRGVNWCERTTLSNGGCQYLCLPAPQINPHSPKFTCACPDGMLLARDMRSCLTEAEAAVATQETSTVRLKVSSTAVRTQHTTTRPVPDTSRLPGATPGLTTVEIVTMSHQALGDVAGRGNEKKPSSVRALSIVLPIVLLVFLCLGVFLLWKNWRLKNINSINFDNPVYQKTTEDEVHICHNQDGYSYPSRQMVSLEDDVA
UniProt P52294, whole entry, looked up: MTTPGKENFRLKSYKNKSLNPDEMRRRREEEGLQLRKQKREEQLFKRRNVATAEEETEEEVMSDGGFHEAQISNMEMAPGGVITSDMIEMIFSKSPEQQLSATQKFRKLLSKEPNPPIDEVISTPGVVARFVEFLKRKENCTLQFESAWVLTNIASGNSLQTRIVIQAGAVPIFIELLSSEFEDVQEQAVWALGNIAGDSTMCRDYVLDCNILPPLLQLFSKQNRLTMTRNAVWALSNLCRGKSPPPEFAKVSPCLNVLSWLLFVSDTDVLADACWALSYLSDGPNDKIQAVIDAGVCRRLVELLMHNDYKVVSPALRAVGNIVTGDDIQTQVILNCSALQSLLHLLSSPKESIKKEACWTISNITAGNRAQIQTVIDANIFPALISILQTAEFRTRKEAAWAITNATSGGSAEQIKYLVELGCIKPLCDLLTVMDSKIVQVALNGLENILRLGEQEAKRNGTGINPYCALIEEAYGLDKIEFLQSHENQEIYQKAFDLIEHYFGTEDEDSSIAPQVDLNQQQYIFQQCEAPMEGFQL
UniProt Q96PV6, 435-455: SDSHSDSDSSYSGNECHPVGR
UniProt Q8NG31: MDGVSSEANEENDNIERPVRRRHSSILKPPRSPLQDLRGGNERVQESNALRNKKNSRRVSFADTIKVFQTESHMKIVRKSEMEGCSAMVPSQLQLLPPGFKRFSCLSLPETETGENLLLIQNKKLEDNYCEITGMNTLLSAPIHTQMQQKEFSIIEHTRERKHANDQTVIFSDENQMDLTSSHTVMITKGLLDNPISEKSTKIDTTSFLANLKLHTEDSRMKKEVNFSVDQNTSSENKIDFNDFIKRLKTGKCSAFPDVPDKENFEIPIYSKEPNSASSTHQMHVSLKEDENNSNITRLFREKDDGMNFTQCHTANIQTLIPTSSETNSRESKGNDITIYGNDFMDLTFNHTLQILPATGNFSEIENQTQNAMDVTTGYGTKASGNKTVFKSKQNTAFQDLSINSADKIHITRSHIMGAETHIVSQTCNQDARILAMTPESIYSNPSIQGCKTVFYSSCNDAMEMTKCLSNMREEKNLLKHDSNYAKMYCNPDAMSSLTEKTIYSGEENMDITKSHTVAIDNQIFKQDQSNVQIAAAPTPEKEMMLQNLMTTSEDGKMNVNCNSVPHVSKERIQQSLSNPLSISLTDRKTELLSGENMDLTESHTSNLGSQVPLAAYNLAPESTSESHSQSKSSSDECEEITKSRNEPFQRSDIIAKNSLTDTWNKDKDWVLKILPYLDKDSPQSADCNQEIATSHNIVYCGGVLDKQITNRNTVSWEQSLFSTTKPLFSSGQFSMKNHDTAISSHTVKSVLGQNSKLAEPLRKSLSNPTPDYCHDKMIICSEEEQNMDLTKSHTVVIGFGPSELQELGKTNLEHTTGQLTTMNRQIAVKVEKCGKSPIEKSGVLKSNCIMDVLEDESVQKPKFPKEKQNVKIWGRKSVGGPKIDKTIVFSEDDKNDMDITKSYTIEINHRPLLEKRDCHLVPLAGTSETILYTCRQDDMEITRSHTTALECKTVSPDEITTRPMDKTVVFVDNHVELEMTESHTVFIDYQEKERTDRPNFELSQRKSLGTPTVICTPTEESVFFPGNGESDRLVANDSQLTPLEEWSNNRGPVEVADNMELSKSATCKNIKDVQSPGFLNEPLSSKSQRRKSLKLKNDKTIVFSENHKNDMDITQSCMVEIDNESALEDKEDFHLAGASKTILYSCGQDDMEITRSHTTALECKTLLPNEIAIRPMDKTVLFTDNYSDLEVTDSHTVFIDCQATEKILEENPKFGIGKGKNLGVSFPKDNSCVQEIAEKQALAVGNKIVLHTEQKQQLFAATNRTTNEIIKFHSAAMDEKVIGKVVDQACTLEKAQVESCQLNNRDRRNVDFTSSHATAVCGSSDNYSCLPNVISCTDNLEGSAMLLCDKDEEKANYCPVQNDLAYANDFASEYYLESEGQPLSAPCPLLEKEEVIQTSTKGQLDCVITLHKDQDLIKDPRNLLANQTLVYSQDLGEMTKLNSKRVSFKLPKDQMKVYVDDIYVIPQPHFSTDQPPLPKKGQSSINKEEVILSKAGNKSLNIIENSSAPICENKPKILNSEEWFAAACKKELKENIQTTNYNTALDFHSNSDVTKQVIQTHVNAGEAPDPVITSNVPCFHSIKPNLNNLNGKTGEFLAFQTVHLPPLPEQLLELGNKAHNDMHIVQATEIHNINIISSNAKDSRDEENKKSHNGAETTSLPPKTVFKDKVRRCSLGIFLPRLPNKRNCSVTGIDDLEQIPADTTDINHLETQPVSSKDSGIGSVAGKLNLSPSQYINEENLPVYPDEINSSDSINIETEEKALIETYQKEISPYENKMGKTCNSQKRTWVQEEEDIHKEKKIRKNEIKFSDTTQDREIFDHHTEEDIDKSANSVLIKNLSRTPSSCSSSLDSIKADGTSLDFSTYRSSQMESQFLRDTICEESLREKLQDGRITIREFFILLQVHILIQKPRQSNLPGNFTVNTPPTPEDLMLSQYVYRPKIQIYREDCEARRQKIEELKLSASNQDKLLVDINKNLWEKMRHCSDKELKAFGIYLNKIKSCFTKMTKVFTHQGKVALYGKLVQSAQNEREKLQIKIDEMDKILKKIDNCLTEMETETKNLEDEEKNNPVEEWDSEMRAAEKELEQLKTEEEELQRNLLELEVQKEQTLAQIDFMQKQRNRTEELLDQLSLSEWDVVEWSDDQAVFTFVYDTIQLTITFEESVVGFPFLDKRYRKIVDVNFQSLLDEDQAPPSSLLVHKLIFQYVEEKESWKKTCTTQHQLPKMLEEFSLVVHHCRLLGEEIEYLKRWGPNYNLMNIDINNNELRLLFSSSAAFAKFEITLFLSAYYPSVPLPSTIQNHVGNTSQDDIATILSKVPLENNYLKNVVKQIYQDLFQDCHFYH

Compound: ClCC(=O)N[C@H]1CCCc2ccccc12
Assay: log2 mean competition ratio of IA-DTB cysteine labelling (DMSO/compound) (log2 ratio); higher = stronger cysteine engagement by compound
Conditions: 200 µM; treatment time: 4 h; cell line lysate: HEK293T
Description: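 IA-DTB competitive cysteine chemoproteomics in HEK293T RIPA lysate. Lysates were treated with compound 29 or 30 at 50 or 200 µM for 4 h, then IA-DTB (500 µM, 1 h), trypsin-digested, NeutrAvidin-enriched and analysed by diaPASEF. Competition ratio = intensity DMSO / intensity compound (n=4 treated, n=64 DMSO); binding: mean log2 CR ≥ 1 and p ≤ 0.05 plus QC filters. Target is the cysteine site.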

Target | log2 mean competition ratio
KLHL22 C11 (UniProt Q53GT1) | 0.399
KRIT1 C297 (UniProt O00522) | 0.092
LEMD3 C838 (UniProt Q9Y2U8) | 0.112
KLHL11 C318 (UniProt Q9NVR0) | 0.267
KMT2C C3751 (UniProt Q8NEZ4) | -0.286
KLHL41 C147 (UniProt O60662) | -0.026
LRPPRC C848 | 0.239
LIAS C106 (UniProt O43766) | 0.104
LARP1B C775, A0A3B3ISF0 | -0.053
LDLRAP1 C119 (UniProt Q5SW96) | -0.00586
LIMA1 C164 (UniProt Q9UHB6) | -0.0149
LLGL1 C1059 (UniProt Q15334) | -0.115
LDLR C75 (UniProt P01130) | 0.591
KYAT3 C416 (UniProt Q6YP21) | -0.0311
KPNA1 C298 (UniProt P52294) | -0.397
KMT2A C456 (UniProt Q03164) | -0.0154
LIMS1 C300 (UniProt P48059) | 0.0971
LAMP1 C338 (UniProt P11279) | 0.261
LOC100421372 C227 | -0.0521

Target | log2 mean competition ratio
KLHL11 C570 (UniProt Q9NVR0) | -0.16
LRBA C2740 | -0.0561
LIFR C889 (UniProt P42702) | 0.0926
LACTB2 C100 (UniProt Q53H82) | 0.193
LPIN3 C711 (UniProt Q9BQK8) | 0.0283
LENG8 C450 (UniProt Q96PV6) | -0.182
LIG3 C929 (UniProt P49916) | 0.0786
LDLR C667 (UniProt P01130) | 0.404
LRBA C2675 | -0.386
KMT2A C1575 (UniProt Q03164) | 0.253
LRPPRC C113 | 0.272
LIG3 C404 (UniProt P49916) | 0.141
LACTB C476 (UniProt P83111) | 0.297
LONRF2 C220 (UniProt Q1L5Z9) | 0.54
LLGL1 C915 (UniProt Q15334) | 0.0496
LONP1 C682 (UniProt P36776) | 0.0472
KNL1 C1233 (UniProt Q8NG31) | 0.0645
LMOD1 C72 | -0.000902
KIFAP3 C463 (UniProt Q92845) | 0.0442

A stretch of the results above, for reference:
Target | log2 mean competition ratio
LIFR C889 (UniProt P42702) | 0.0926
LACTB2 C100 (UniProt Q53H82) | 0.193
